According to US20220033501A1:
Changes are numbered by the printed parent chain. These are yes or no findings as the source states them, for the method shown. Some results given as binding are weak or reduced against the parent protein; the word gives no strength. Blank lines part the entries; values can stand above or below the binder they belong to.

Target: T1, human TIM-3 ECD (antigen protein of the antibody affinity test) (human) (UniProt Q8TDQ0)
T1 sequence: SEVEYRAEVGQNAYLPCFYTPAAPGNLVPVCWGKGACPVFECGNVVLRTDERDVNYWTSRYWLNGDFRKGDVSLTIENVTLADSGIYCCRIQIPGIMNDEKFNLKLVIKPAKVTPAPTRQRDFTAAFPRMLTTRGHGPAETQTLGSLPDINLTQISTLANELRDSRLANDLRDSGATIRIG
Assay: BLI, antibody on AHC sensor, antigen in solution

- binding: binds
B1: 18D2H2 fully human TIM-3 antibody (human IgG4, kappa) (antibody, V domains shown)
VH: EVQLVESGGDLVQPGGSLRLSCAASGFTFSTYWMTWVRQAPGRGLEWVANIKQDGSAKYYVDSVKGRFTLSRDDAKNSLYLQMNSLRAEDTAVYYCARGSNWFDYWGQGTLVTVSS
VL: ETVMTQSPATLSVSPGERATLSCRANQNVYSNLAWYQQKPGQAPRLLIYDASTRATGFPARFSGSGSGTEFTLTISSLQSEDFAVYYCQQYNNWPLTFGGGTKVEIK

- binding: binds
B2: 34B6D8 fully human TIM-3 antibody (human IgG4, kappa) (antibody, V domains shown)
VH: B1 VH with D10G, R43K, G44R, D54G, S56G, A57D, L70I, R72T, D74N, Y105P
VL: EIVMTQSPATLSMSPGERATLSCRASQSVYDNLAWYQQKPGQAPRLLIYGASTRATGIPARFSGSGSGTEFTLTISSLQSEDFALYYCQQYTHWPITFGQGTRLEIK

- binding: binds
B3: 57F4E5 fully human TIM-3 antibody (human IgG4, kappa) (antibody, V domains shown)
VH: EVQLVESGGGLVQPGGSLRLSCAASGFTFSSYWMSWVRQAPGKGLEWVANIKQDGSEKYYVDSVKGRFTISRDSAKNSLYLQMNSLRAEDTAMYFCARDSNFFDYWGQGTLVTVSS
VL: B1 VL with N26S, N28S, Y30S, Q38R, D50F, A51S, F58I

- binding: binds
B4: 134H3G6 fully human TIM-3 antibody (human IgG4, kappa) (antibody, V domains shown)
VH: EVQLVESGGGLVQPGGSLRLSCAASGFTFSNSWMTWVRQAPGKGLEWVANIKQAGTEKYYVDSVKGRFTISRDNAKNSLYLQMNSLRAEDTAVYYCNSGSNYFDYWGQGTLVTVSS
VL: B1 VL with T2I, N26R, V29F, D50G, F58I

- binding: binds
B5: 39E5H1 fully human TIM-3 antibody (human IgG4, kappa) (antibody, V domains shown)
VH: EVQLVESGGGLVQPGGSLRLSCAASGFTFSSYWMSWVRQAPGKGLEWVANIKRGGSERYYVDSVKGRFTISGDNAKNSVYLQMNSLRAEDTAVYYCARGSNWFDPWGQGTLVTVSS
VL: B2 VL with I2T, T10I, M13V, D31S, P40L, G50D, L85V, T92N, H93N

- binding: binds
B6: 7A4F10 fully human TIM-3 antibody (human IgG4, kappa) (antibody, V domains shown)
VH: EVQLLESGGGLVQPGGSLRLSCAASGFTFRTHLISWVRQAPGKGLEWVAAITGSGGSTYYADSVKGRFIISRDNSKNTLFLQMNSLRAEDTAVYYCAKDGGSGSYDDFWGQGTLVTVSS
VL: ETVLTQSPVTLSLSPGERATLSCRASQSVGSYLAWYQQKPGQAPRLLIYDASNRATGIPARFSGSGSGTDFTLTISSLEPEDFAVYYCQQRSNWPPTFGQGTKVEIK
